# Source: PMC7819943, “Rice protein-binding microarrays: a tool to detect cis-acting elements near promoter regions in rice”
# By UniProt entry, the sequences of proteins in these tests, tags left out.
# UniProt Q0JBA9, entry or part of it: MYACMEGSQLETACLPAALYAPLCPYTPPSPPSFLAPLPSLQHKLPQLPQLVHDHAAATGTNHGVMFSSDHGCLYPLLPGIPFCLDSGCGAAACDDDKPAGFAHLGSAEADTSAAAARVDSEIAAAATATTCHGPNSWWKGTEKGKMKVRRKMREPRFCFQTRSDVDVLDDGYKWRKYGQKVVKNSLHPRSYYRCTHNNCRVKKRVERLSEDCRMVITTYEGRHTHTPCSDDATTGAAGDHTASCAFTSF
# The list shows a part of the results.
# Biological target: OsWRKY34 (Oryza sativa, UniProt Q0JBA9 1-250)
# Experiment: protein-binding microarray (RPBM); PBS, 2% BSA, 51.3 ng/ul salmon testes DNA, 50 uM zinc acetate, 200 nM TF, 25 C, 1 h; high values mean tight binding
# Details: protein: recombinant; tags: N-terminal polyhistidine and DsRed monomer fusion (pET32a); label: CyDye5-dUTP incorporated in the synthesized complementary strand; 3' TTTTT single-stranded linker to array surface; dsDNA, one strand shown
# Method in brief: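 Transcription factors were each fused at the N-terminus to a polyhistidine tag plus DsRed and expressed in E. coli BL21-CodonPlus before Ni–NTA purification. Binding to a double-stranded custom Agilent array was carried out with 200 nM protein at 25 °C for 1 h in PBS, 2% BSA, salmon testes DNA and 50 µM zinc acetate. The binding signal is per-feature fluorescence intensity, in arbitrary units, on an Axon 4000B scanner.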
row,Sequence,binding signal
1,TGCTTTTCAGTTACGTTCTCCGTTAGTCCGTTTTGCTTTTCGGAGTCACCTAGTGCAG,11200 fluorescence intensity (a.u.)
2,TGTGTCATGTTCTGATTGGCTGTGGTTGGTTTGATTTTCTCGGAGTCACCTAGTGCAG,10600 fluorescence intensity (a.u.)
3,GCTTTTGAATGTAATCGTTGCGACAACGCCGTTGCCCTTGCGGAGTCACCTAGTGCAG,8640 fluorescence intensity (a.u.)
4,AACGCTCACTGTTCATCGCCGTAATTAAATTAAATTAAATCGGAGTCACCTAGTGCAG,8660 fluorescence intensity (a.u.)
5,TGGGACTCGCCCTGTGCATTTCCGTGGCGATCGCTTCTGACGGAGTCACCTAGTGCAG,8220 fluorescence intensity (a.u.)
6,TCTGTTTCAGGTTATAAGATGTTTTGACTTTGGTCAAAGTCGGAGTCACCTAGTGCAG,8030 fluorescence intensity (a.u.)
7,GATATTTAGTCACTATTCACTCACAAAATTTGTTGCATTTCGGAGTCACCTAGTGCAG,11200 fluorescence intensity (a.u.)
8,CGCCTCCGTCGCCATCCCGCTCGCCCTCGCCGCCTCCAGCCGGAGTCACCTAGTGCAG,10900 fluorescence intensity (a.u.)
9,CGCCGACGGTCAGCCTCCACACCCCGGCTTCTCTCCCGCGCGGAGTCACCTAGTGCAG,8820 fluorescence intensity (a.u.)
10,GCTCAGATTGTTCATCAAGTTTTTCCTCTGTGCTCTGTTTCGGAGTCACCTAGTGCAG,8890 fluorescence intensity (a.u.)
11,CCCCGCCGCCGTTCCCGCCATCAGCTGCCGCCACCCTGGGCGGAGTCACCTAGTGCAG,9890 fluorescence intensity (a.u.)
12,TCCAGGCCATGCGTTTTTTTCTTTCCCTCCGAATTGCTTACGGAGTCACCTAGTGCAG,8830 fluorescence intensity (a.u.)
13,CAAGTAGCCACAAACTGTCCTTGTGTTCCCCTTGCACGTCCGGAGTCACCTAGTGCAG,8880 fluorescence intensity (a.u.)
14,GCCATGTATTATAATTCTTTACACAAAATGTAGCAAGCAACGGAGTCACCTAGTGCAG,9370 fluorescence intensity (a.u.)
15,TCCTTCCCTAAATGTTTGACGCCGTTGACTTTTTTAAACACGGAGTCACCTAGTGCAG,16600 fluorescence intensity (a.u.)
16,ATTTCTTCCATTTTAAGTTTATTTTATCATCTTTGTATATCGGAGTCACCTAGTGCAG,10500 fluorescence intensity (a.u.)
17,TTTTCCACTTCTCACTCTCCATCTTCTTCAACAGTTGCACCGGAGTCACCTAGTGCAG,9820 fluorescence intensity (a.u.)
18,CTTAGACTGTGTTCTTTTCCATGGGTTCCAACCCACCCCTCGGAGTCACCTAGTGCAG,9210 fluorescence intensity (a.u.)
19,GGGTCTAGATATTTTCATATATGGTATATTTATTATGCAACGGAGTCACCTAGTGCAG,10500 fluorescence intensity (a.u.)
20,GGTGGGTTCTCTTCTTCTTCTTCTCCTTGGAGCTCAGTTCCGGAGTCACCTAGTGCAG,14700 fluorescence intensity (a.u.)
21,GTGCTCCCACATCGTCCGCCGCTAGATATTTTACTCTACTCGGAGTCACCTAGTGCAG,9600 fluorescence intensity (a.u.)
22,TTTGGTGTTGGTATTATTGGGGTTTGAAAGAGTTAATTAGCGGAGTCACCTAGTGCAG,12000 fluorescence intensity (a.u.)
23,TTTGCCTCCTCATCTCCTTTACGTGGGCTTTTCTATCCCACGGAGTCACCTAGTGCAG,8540 fluorescence intensity (a.u.)
24,TTCTGAGTGTATAATTAATGTTTATGTGGTCACGTACTTGCGGAGTCACCTAGTGCAG,8840 fluorescence intensity (a.u.)
25,GCTTTTTCTTTGTTTTTTTTTTTGGCTCGAGTGCGCCTTCCGGAGTCACCTAGTGCAG,11000 fluorescence intensity (a.u.)
26,GTTTAGATTCGTTGTACTTAGATTATGTTACATCTCATTCCGGAGTCACCTAGTGCAG,8050 fluorescence intensity (a.u.)
27,ATGCATCACAGCCACCGGTGCGTGGCCCATCTCCAATTCTCGGAGTCACCTAGTGCAG,8780 fluorescence intensity (a.u.)

row,Sequence,binding signal
1,CCATTATATGCCTCTGAATTTTTCACACGTCCACGATTTGCGGAGTCACCTAGTGCAG,8830 fluorescence intensity (a.u.)
2,CAAAGAAATCCAAGCACCGCCGCCTCTCTCTGCTCTACCCCGGAGTCACCTAGTGCAG,8450 fluorescence intensity (a.u.)
3,TACCAACCACCGTCCACGAGTGTGCCGCCGCCGCCGCCTCCGGAGTCACCTAGTGCAG,9860 fluorescence intensity (a.u.)
4,GTACTCACTAATAGCATTTTTTTCTTCTTTTTCTTTCTCTCGGAGTCACCTAGTGCAG,8830 fluorescence intensity (a.u.)
5,GCTCTTTCTGTTGACCAAGCCACAGGCAGTTTGACATCAACGGAGTCACCTAGTGCAG,9530 fluorescence intensity (a.u.)
6,GTCGAAAGATTATATATTCAGGGTCGTTTGTCTCTTACATCGGAGTCACCTAGTGCAG,8250 fluorescence intensity (a.u.)
7,CTCTATGTGGATTTGTAGTAGTGTATATATATATATATATCGGAGTCACCTAGTGCAG,8700 fluorescence intensity (a.u.)
8,ATTAAAATTATTTCTCGAGCTCCGAAAATTTGCGAGAAATCGGAGTCACCTAGTGCAG,9620 fluorescence intensity (a.u.)
9,GGCTAATCAATGACTCTGACCTATTTGTCGATCTCTTATACGGAGTCACCTAGTGCAG,8260 fluorescence intensity (a.u.)
10,ATCAAAGTTTCCACTGTATGTTGACCATGTAAAGTCAACTCGGAGTCACCTAGTGCAG,9730 fluorescence intensity (a.u.)
11,CCGATCTGCTCCACCGCCACCGGCGCTCCGGGCGGACGGCCGGAGTCACCTAGTGCAG,8220 fluorescence intensity (a.u.)
12,GTTCGAAAAGTCGTGGGTTGTTCTTGACTTCTTGCCAGTGCGGAGTCACCTAGTGCAG,9060 fluorescence intensity (a.u.)
13,CGCTGTTGACTTTTTTAAAAATGTTTGACCGTTCATCTTACGGAGTCACCTAGTGCAG,33600 fluorescence intensity (a.u.)
14,GCATCTCCACAGTCCACACTGTGCGCGCCATTCTTATCCTCGGAGTCACCTAGTGCAG,14100 fluorescence intensity (a.u.)
15,AAATGACTTTCTCGTCTTATGCTGACTTCATCTTCATTTTCGGAGTCACCTAGTGCAG,10300 fluorescence intensity (a.u.)
16,TTTTCTCTTGCTGGTCTCCGTCTTCGTCTTCTCCTCCTCCCGGAGTCACCTAGTGCAG,8550 fluorescence intensity (a.u.)
17,TCATCTCAGTACTACTCATCTCTATTGGCTGTTTTCGACACGGAGTCACCTAGTGCAG,9400 fluorescence intensity (a.u.)
18,GAGTTTAATTTTTTTTTTGTGGTTGGTTGTATCGTGATACCGGAGTCACCTAGTGCAG,10100 fluorescence intensity (a.u.)
19,CTGTCCTGTCCGGCCCCTGGTTTTTGCTGCTGACTTATATCGGAGTCACCTAGTGCAG,11600 fluorescence intensity (a.u.)
20,GCCTGGGTCTCATAACGATATCAATGTACTTCATCGATGCCGGAGTCACCTAGTGCAG,8860 fluorescence intensity (a.u.)
21,TTGGTTCGTGTCGTTCGCGCGCTTTCTCTCTCTCTCTCCTCGGAGTCACCTAGTGCAG,14500 fluorescence intensity (a.u.)
22,GAATATTCGGGTGTGTGTGTCTCCAGCAGTAGTTCTTCTCCGGAGTCACCTAGTGCAG,11300 fluorescence intensity (a.u.)
23,CTGTTCATTCTCCGGTAGCCATTTGTCCGTAGCACATAAACGGAGTCACCTAGTGCAG,12600 fluorescence intensity (a.u.)
24,TCTGTTTCGCACTTGTATTTCAATAATGTGTTTTTTCTATCGGAGTCACCTAGTGCAG,8350 fluorescence intensity (a.u.)
25,AATCACCACTTCATCAGCACCAGACACCAAACTGCCAAATCGGAGTCACCTAGTGCAG,8510 fluorescence intensity (a.u.)
26,TTATCCTTCGAGCACATATATAATCCGCACGCCGCCGCCTCGGAGTCACCTAGTGCAG,9940 fluorescence intensity (a.u.)
27,CCTTATTTTTAATTCCGAATTTCAGCTATTTTTAAATTATCGGAGTCACCTAGTGCAG,8700 fluorescence intensity (a.u.)

# A different layout for part of the listing above.
row	Sequence	binding signal
2	CAAAGAAATCCAAGCACCGCCGCCTCTCTCTGCTCTACCCCGGAGTCACCTAGTGCAG	8450 fluorescence intensity (a.u.)
3	TACCAACCACCGTCCACGAGTGTGCCGCCGCCGCCGCCTCCGGAGTCACCTAGTGCAG	9860 fluorescence intensity (a.u.)
4	GTACTCACTAATAGCATTTTTTTCTTCTTTTTCTTTCTCTCGGAGTCACCTAGTGCAG	8830 fluorescence intensity (a.u.)
